Values of other authors in patent US20150139936A1, “DOSAGE AND ADMINISTRATION OF BISPECIFIC SCFV CONJUGATES IN COMBINATION WITH ANTI-CANCER THERAPEUTICS” (Merrimack Pharmaceuticals, Inc., priority 2012, published 2015).

Conditions: cited from earlier work

For `CC(=O)O[C@H]1C(=O)[C@@]2(C)[C@H]([C@H](OC(=O)c3ccccc3)[C@]3(O)C[C@H](OC(=O)[C@H](O)[C@@H](NC(=O)c4ccccc4)c4ccccc4)C(C)=C1C3(C)C)[C@]1(OC(C)=O)CO[C@@H]1C[C@@H]2O` [paclitaxel], the water solubility is given as “insoluble in water”.
